Measurements reported in paper PMC6580496.
No constants are given. Whether binding was seen depends on the method and setting. In cells and extracts the contact can be indirect. Some binding calls cover weakened binding; strength is not graded here.

The chains behind the UniProt entries cited, without tags or fusion partners. Where a name states a change or a piece, a line headed by the entry shows the natural chain unless it says otherwise. A line that says so, or that is headed by a name, gives the form on record, which may keep a tag or linker.
UniProt Q06609: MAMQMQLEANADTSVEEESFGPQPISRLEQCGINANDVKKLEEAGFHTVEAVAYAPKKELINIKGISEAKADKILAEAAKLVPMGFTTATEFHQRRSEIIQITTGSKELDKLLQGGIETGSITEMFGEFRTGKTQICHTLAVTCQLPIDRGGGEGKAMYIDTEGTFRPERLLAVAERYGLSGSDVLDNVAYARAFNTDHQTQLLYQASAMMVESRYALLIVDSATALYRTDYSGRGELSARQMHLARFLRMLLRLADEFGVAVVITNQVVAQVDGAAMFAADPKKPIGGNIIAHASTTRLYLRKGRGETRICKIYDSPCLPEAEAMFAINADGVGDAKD
UniProt Q05397: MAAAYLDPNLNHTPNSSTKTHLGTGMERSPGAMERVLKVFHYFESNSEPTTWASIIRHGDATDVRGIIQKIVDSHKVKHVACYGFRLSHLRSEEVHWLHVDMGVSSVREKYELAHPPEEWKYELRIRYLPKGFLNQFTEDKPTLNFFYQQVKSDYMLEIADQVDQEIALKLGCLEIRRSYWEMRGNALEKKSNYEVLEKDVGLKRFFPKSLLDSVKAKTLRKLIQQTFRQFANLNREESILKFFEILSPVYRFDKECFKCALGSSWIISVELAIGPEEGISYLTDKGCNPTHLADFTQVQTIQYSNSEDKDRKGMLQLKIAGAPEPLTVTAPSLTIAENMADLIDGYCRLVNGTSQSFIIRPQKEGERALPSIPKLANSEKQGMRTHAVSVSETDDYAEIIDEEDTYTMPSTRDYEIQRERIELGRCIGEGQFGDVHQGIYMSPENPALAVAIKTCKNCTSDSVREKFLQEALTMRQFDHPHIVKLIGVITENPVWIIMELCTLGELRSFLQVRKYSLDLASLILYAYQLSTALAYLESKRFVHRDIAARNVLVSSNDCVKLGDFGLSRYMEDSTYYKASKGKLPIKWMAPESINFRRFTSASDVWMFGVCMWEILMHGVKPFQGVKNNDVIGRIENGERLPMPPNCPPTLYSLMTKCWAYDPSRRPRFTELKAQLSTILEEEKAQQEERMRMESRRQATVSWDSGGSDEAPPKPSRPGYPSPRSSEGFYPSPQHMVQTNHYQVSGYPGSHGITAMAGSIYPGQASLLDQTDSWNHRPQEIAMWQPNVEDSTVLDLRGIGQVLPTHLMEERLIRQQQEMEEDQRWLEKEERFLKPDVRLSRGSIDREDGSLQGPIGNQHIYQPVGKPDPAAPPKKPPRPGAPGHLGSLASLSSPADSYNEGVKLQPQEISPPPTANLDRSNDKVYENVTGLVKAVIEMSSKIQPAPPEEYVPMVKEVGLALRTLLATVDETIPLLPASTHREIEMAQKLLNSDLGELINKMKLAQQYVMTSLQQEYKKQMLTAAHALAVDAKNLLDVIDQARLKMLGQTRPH
UniProt P20700: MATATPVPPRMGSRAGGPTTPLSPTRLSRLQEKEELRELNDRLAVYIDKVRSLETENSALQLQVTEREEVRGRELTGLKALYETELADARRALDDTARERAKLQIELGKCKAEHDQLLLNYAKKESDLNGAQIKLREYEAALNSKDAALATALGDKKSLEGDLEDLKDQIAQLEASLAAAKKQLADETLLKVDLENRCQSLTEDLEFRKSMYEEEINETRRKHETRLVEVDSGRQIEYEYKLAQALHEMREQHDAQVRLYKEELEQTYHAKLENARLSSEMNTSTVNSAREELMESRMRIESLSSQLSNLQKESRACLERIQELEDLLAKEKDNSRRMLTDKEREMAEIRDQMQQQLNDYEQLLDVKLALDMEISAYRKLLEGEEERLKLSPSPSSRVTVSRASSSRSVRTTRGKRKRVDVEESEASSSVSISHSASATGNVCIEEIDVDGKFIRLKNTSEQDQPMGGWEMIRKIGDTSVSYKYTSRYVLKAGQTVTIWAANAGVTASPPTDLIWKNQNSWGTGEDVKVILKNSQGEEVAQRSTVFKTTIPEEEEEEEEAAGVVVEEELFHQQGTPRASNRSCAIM
Dystrophin Dp71 (human (endogenous in HBE)) (P11532-7, form named): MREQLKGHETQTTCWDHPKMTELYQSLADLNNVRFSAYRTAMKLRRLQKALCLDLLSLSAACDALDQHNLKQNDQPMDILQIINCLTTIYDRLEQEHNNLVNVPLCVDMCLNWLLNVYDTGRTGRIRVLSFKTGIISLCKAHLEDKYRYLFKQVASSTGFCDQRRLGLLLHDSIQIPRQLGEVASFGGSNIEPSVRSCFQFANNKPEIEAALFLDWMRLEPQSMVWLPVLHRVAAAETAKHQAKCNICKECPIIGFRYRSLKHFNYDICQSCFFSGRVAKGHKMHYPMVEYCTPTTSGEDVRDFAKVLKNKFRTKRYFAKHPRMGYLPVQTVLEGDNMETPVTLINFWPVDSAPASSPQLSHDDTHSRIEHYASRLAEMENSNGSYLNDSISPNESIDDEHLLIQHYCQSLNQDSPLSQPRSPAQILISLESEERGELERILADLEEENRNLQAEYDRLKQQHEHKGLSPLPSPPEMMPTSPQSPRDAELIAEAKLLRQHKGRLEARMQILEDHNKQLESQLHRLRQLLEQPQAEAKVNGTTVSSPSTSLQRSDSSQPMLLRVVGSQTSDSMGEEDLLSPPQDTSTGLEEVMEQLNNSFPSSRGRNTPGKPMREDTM

Assays:
Assay in all cases: co-IP; endogenous proteins in HBE total protein extracts; incubated overnight at 4 °C with 5 μg rabbit antibody (anti-lamin B1, anti-Dp71, anti-FAK or anti-RAD51) bound to protein G magnetic beads; washed 3 times with PBS containing 0.1% Tween 20; Western blot with mouse antibodies; irrelevant rabbit polyclonal antibody as negative control
[1] = biological target: RAD51 (human (endogenous in HBE)) (UniProt Q06609)
[2] = biological target: focal adhesion kinase (human (endogenous in HBE)) (UniProt Q05397)
[3] = biological target: lamin B1 (human (endogenous in HBE)) (UniProt P20700)
[4] = biological target: Dystrophin Dp71 (human (endogenous in HBE)) (UniProt P11532)

Row | binding [1] | binding [2] | binding [3] | binding [4] | Substance
1 | binds | binds | binds |  | Dystrophin Dp71 (from UniProt P11532-7 1-617)
2 |  |  | binds | binds | RAD51 (from UniProt Q06609 1-339)
3 |  |  |  | binds | focal adhesion kinase (from UniProt Q05397 1-1052)
4 | binds |  |  | binds | lamin B1 (from UniProt P20700 1-586)
